Counter-ions that a name gives are not always drawn. Some of these results come from one statement about several compounds together.
Test system: MIA-PaCa-2
Test: Flow cytometry of NKG2D ligands MIC-A/B in drug-resistant cells
Type: cell-based, human
Conditions: vs untreated MIA-PaCa-2 (28.9%)
Method: Flow cytometery analysis. All cells were cultured with Gem at 2×IC50 of gemcitabine for 10 days. Cultured cells (2×10^5) were washed in cold-PBS followed by blocking with 20 μL of 1 mg/mL of human IgG (Sigma, Saint Louis, Mo.) for 1 hour on ice. This step was necessary to inhibit non-specific binding of immunoglobulins during staining. Cells were then triple-stained with antibodies against ESA, CD44, and CD24. Analysis was performed with Becton Dickinson FACSCalibur and Cell Quest software (Becton Dickinson). Cells were gated on ESA+ population. Expression of CD24 and CD44 was examined in gated ESA+ cells as we described (26). The population of the ESA+, CD44hi and CD24low/− cells was calculated as percent of total cells and total ESA+ cells. All cell lines were also stained with a MIC-A/B and CD133, and analyzed as above.
To address the hypothesis that drug-resistant cancer cells are more sensitive to cellular immune effectors, we quantified expression of NKG2D ligands, MIC-A and -B (58, 59). ESA^+ MIA-PaCa-2 cells were analyzed for MIC-A/B. MCF7 cells were analyzed with CD44, CD24 and MIC-A/B (FIG. 7B), because almost all MCF7 cells (95% and more) expressed ESA.

Row | SMILES | increase of expression of MIC-A/B in drug-resistant cells
1 | O=c1[nH]cc(F)c(=O)[nH]1 [5-FU, 5-fluorouracil] | more than 3 fold
2 | Nc1ccn([C@@H]2O[C@H](CO)[C@@H](O)C2(F)F)c(=O)n1 [GEM, gemcitabine hydrochloride] | more than 3 fold
